Here are results for one molecule from PMC4503993.

Results are given in words; binding and its absence hold for the method and conditions named. In cells and extracts the contact can be indirect. Here binding means that the protein was enriched with, or labelled near, the bait; the list need not be complete.

In the assay the target is GST-KIF17b-CTD (C-terminal domain of KIF17b) (mouse). Description: affinity purification with mass spectrometry; purified GST-KIF17b-CTD on glutathione-Sepharose beads as bait, incubated with testes lysate; cargo identified by 1D LC-MS; only the target purified.

B1: MVH (endogenous, mouse testes) (protein, UniProt Q61496 1-702)
chain: MGDEDWEAEILKPHVSSYVPVFEKDKYSSGANGDTFNRTSASSDIGESSKKENTSTTGGFGRGKGFGNRGFLNNKFEEGDSSGFWKESNNDCEDNQTRSRGFSKRGGCQDGNDSEASGPFRRGGRGSFRGCRGGFGLGRPNSESDQDQGTQRGGGLFGSRKPAASDSGNGDTYQSRSGSGRGGYKGLNEEVVTGSGKNSWKSETEGGESSDSQGPKVTYIPPPPPEDEDSIFAHYQTGINFDKYDTILVEVSGHDAPPAILTFEEANLCQTLNNNIAKAGYTKLTPVQKYSIPIVLAGRDLMACAQTGSGKTAAFLLPILAHMMRDGITASRFKELQEPECIIVAPTRELINQIYLEARKFSFGTCVRAVVIYGGTQFGHSVRQIVQGCNILCATPGRLMDIIGKEKIGLKQVKYLVLDEADRMLDMGFGPEMKKLISCPGMPSKEQRQTLLFSATFPEEIQRLAGDFLKSSYLFVAVGQVGGACRDVQQTILQVGQYSKREKLVEILRNIGDERTMVFVETKKKADFIATFLCQEKISTTSIHGDREQREREQALGDFRCGKCPVLVATSVAARGLDIENVQHVINFDLPSTIDEYVHRIGRTGRCGNTGRAISFFDTDSDNHLAQPLVKVLSDAQQDVPAWLEEIAFSTYVPPSFSSSTRGGAVFASVDTRKNYQGKHTLNTAGISSSQAPNPVDDESWD
Consider B1, for which the binding entry is reported as “binds”.
